Experiments:
PA nanostructures = assay: 1H DOSY NMR of OC free and with PA; type: binding; conditions: HRMAS DOSY, pelleted OC-PA
Description: Binding of organic cations (OCs) to PA. Initial screening of interactions of five different OCs with PA was performed using ^1H NMR spectroscopy in solution (FIG. 53). Here, ^1H signals lineshape from the ^1H NMR spectra of OCs were compared and analyzed against the corresponding ^1H signals from OC-PA samples. It is expected that ^1H signals will experience broadening if binding is occurring. In all cases we observed significant broadening except for tetramethylammonium (OC4), indicating its poor binding to PA nanostructures. ^1H DOSY NMR measurements. Spectra were measured by monitoring the change in intensity of the corresponding resonances as a function of the field gradient strength g (G/cm). A 2D sequence was used for diffusion measurement based on stimulated echo and LED which applies bipolar gradient pulses for diffusion (2 spoil gradients) together with water presaturation during relaxation delay (ledbpgppr2s Bruker sequence). ^1H DOSY data were first processed in Topspin (Fourier transformation, phasing, and baseline correction) and then the peak intensities of the corresponding resonances were extracted and fitted to the Stejskal-Tanner equation (Eq. 1) to give the value of diffusion coefficient D (m^2/s). Solution ^1H DOSY NMR data were fit to Eq. 1 using NMRTools.jl{, #28110}. ^1H HRMAS DOSY NMR data were fit using the Eq. 1 using Dynamics Center 2.6.3 software. […]

PA filaments = assay: OC remaining in supernatant after ultracentrifugation of OCPA samples (quantitative 1H NMR); type: binding; conditions: [PA]0 10.00 mM
[1] = 23Na NMR relaxometry, Na+/K+ competitive binding assay
[2] = 0 molar equiv. of K^+, 1 mM PA, 14.5 mM Na^+

CCn1cc[n+](C)c1.[Cl-] [OC, 1-ethyl-3-methyl imidazolium chloride]
population, fast diffusing (PA nanostructures): 81.76±0.05%
population, slow diffusing (PA nanostructures): 18.24±0.03%
[OC]sn, concentration of OC in the supernatant (PA filaments; [OC]0 20.00 mM): 4.66 mM
[OC]sn, concentration of OC in the supernatant (PA filaments; [OC]0 40.00 mM): 14.96 mM
[OC]sn, concentration of OC in the supernatant (PA filaments; [OC]0 80.00 mM): 31.64 mM
[OC]sn, concentration of OC in the supernatant (PA filaments; [OC]0 160.00 mM): 58.45 mM

C16-VVAAEE [PA, peptide amphiphile monomer, C16=palmitoyl, assembles into one-dimensional nanostructures]
23Na R1 [1, 2]: 49.2 ± 0.4 s⁻¹
23Na R2 [1, 2]: 57.8 ± 1.2 s⁻¹
23Na R1 ([1]; 1 molar equiv. of K^+): 39.9 ± 0.2 s⁻¹
23Na R2 ([1]; 1 molar equiv. of K^+): 46.6 ± 1.1 s⁻¹
23Na R1 ([1]; 3 molar equiv. of K^+): 32.2 ± 0.2 s⁻¹
23Na R2 ([1]; 3 molar equiv. of K^+): 37.5 ± 1.1 s⁻¹
23Na R1 ([1]; 6 molar equiv. of K^+): 27.3 ± 0.1 s⁻¹
23Na R2 ([1]; 6 molar equiv. of K^+): 31.9 ± 1.1 s⁻¹

— patent publication US20260234553A1, “COMPOSITIONS COMPRISING SUPRAMOLECULAR ASSEMBLIES OF PEPTIDE AMPHIPHILES AND ORGANIC CATIONS AND METHODS OF USE THEREOF” (Northwestern University, priority 2023, published 2026)
